Publication PMC6949491
No constants are given. Whether binding was seen depends on the method and setting. Binding seen in cells or lysates may run through a third protein. Some entries that bind do so weakly or less than the wild type.

Amino acid sequences for entries named in this document (tags omitted). Residues count along the entry.
UniProt Q07113, residues 36-2483: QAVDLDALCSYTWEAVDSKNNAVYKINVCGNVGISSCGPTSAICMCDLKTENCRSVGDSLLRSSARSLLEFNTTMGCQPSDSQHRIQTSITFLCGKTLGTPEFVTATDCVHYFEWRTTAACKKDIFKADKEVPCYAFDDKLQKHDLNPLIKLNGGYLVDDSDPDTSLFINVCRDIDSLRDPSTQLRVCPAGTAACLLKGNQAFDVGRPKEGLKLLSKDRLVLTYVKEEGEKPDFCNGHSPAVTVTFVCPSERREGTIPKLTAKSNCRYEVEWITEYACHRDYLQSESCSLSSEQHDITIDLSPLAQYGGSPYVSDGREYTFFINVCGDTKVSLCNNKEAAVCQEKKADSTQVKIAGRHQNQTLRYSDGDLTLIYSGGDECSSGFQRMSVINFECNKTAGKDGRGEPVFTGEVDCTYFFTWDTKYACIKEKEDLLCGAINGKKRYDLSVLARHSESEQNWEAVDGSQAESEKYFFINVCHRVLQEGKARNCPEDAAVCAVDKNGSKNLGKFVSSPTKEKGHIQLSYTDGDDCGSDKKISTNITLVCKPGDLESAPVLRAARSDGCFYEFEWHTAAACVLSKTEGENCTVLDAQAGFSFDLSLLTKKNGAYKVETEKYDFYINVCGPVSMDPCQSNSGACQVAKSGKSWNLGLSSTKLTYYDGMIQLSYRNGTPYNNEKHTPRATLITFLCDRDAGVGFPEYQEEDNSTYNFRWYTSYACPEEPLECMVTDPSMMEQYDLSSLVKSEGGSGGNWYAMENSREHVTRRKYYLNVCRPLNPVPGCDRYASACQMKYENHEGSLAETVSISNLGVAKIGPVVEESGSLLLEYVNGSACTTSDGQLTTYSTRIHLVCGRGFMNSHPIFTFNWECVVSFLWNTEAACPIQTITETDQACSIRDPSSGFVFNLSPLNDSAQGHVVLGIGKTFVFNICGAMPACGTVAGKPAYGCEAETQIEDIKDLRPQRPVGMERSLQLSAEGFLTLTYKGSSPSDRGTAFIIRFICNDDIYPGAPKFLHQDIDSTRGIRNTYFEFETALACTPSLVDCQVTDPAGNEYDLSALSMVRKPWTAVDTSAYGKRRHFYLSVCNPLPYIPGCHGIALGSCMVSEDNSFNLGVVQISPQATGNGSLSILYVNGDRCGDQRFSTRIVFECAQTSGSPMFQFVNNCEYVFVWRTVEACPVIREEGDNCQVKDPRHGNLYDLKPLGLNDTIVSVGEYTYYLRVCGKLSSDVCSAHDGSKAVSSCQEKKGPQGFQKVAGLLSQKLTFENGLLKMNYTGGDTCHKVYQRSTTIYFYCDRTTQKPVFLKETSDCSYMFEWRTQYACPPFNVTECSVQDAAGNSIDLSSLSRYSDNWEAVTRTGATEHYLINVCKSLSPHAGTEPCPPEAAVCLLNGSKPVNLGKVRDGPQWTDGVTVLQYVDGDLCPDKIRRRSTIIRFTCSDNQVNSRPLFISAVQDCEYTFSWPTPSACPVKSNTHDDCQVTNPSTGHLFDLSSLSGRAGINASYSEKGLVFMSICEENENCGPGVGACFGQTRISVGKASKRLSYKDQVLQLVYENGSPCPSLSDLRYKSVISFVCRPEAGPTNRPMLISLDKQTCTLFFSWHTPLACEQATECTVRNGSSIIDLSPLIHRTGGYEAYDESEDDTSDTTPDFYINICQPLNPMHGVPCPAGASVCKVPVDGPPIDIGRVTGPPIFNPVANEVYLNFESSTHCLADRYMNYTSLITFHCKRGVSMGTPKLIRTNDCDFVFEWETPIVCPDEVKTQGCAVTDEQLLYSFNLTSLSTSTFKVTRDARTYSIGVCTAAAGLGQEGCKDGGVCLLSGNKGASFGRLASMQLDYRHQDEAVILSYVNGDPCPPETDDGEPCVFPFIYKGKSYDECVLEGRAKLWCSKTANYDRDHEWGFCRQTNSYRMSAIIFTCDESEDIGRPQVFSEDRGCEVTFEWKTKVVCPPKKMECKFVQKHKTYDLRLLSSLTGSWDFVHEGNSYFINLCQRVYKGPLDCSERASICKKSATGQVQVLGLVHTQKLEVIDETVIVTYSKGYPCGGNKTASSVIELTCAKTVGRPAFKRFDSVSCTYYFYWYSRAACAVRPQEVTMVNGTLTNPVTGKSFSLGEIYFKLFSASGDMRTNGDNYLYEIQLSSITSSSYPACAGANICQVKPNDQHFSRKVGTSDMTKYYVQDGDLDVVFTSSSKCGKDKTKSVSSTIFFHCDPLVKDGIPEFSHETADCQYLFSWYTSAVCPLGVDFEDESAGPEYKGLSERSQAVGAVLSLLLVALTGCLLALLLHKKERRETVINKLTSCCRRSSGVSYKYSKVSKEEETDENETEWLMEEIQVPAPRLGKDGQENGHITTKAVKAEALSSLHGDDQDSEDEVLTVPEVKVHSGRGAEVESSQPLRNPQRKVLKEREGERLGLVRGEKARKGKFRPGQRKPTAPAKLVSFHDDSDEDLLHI
UniProt P08752: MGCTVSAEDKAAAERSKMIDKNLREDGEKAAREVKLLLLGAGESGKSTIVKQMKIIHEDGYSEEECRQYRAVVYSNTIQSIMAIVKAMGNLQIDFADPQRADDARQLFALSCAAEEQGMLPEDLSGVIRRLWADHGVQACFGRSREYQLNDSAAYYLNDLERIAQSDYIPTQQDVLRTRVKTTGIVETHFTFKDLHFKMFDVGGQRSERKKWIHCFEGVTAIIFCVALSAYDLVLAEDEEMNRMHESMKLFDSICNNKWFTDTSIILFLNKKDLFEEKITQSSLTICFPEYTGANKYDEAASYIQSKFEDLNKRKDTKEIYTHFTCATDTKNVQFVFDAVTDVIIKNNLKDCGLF
UniProt Q8BWG9: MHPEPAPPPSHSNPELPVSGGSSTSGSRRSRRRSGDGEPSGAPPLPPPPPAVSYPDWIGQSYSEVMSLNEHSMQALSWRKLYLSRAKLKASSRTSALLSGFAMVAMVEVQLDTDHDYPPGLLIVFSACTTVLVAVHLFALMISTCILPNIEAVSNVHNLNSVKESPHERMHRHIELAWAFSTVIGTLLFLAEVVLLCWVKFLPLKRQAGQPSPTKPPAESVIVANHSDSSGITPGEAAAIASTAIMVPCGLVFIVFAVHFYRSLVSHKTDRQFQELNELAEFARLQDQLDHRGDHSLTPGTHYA

Columns and labels:
[1] = biological target: type 2 IGF receptor (IGF2R) (mouse (endogenous in C2C12)) (UniProt Q07113); experiment: co-IP; IGF2R immunoprecipitates blotted for Gαi2; untreated, IGF2-treated, anti-IGF2R-treated and IGF2 + anti-IGF2R-treated C2C12 cells; antibody cross-linked to Dynabeads Protein G, 1% Nonidet P-40 buffer, overnight at 4°C
[2] = biological target: T1, CD20 (store-operated Ca2+ channel CD20) (mouse (endogenous in C2C12)) (UniProt P19437); experiment: co-IP; CD20 immunoprecipitates blotted for ORAI1; store-depleted + anti-IGF2R-treated C2C12 cells; antibody cross-linked to Dynabeads Protein G, 1% Nonidet P-40 buffer, overnight at 4°C
T1 sequence: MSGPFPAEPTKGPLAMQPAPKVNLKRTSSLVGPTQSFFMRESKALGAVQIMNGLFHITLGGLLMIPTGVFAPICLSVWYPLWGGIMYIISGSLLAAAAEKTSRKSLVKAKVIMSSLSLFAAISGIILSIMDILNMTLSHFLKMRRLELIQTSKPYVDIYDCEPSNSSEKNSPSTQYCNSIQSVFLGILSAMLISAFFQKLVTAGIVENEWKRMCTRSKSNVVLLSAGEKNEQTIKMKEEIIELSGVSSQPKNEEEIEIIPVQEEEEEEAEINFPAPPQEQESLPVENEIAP

[3] = biological target: T1, CD20 (store-operated Ca2+ channel CD20) (mouse (endogenous in C2C12)); experiment: co-IP; CD20 immunoprecipitates blotted for ORAI1; untreated and store-depleted C2C12 cells; antibody cross-linked to Dynabeads Protein G, 1% Nonidet P-40 buffer, overnight at 4°C
[4] = biological target: T1, CD20 (store-operated Ca2+ channel CD20) (mouse (endogenous in C2C12)); experiment: co-IP; CD20 and IGF2R immunoprecipitates blotted for IGF2R and CD20, respectively; untreated and shCD20-treated C2C12 cell membranes and whole lysates; antibodies cross-linked to Dynabeads Protein G, 1% Nonidet P-40 buffer, overnight at 4°C

Substance: Gαi2 (from UniProt P08752 1-355)
- binding [1]: binds

Substance: plasma membrane channel ORAI1 (from UniProt Q8BWG9 1-304)
- binding [2]: binds weakly
- binding [3]: binds

Substance: type 2 IGF receptor (IGF2R) (from UniProt Q07113 36-2483)
- binding [4]: binds
